Results taken from patent US20030059771A1, “Compositions and methods related to the Rig tumor suppressor gene and protein” (THE UNITED STATES OF AMERICA, Department of Health and …, priority 2001, published 2003).
These are yes or no findings as the source states them, for the method shown. In cells and extracts the contact can be indirect. Some binding calls cover weakened binding; strength is not graded here. Where a sequence is shown, tags or fusion partners need not be part of it.

Biological target: HA-Raf-1 (UniProt P04049)
Experiment: co-immunoprecipitation from co-transfected HEK-293T cells, anti-Raf-1 IP, anti-FLAG Western blot

- binding: binds
B1: FLAG-Rig (protein, not shown: small tags and cut ends)
chain: MPEQSNDYRVVVFGAGGVGKSSLVLRFVKGTFRDTYIPTIEDTYRQVISCDKSVCTLQITDTTGSHQFPAMQRLSISKGHAFILVFSVTSKQSLEELGPIYKLIVQIKGSVEDIPVMLVGNKCDETQREVDTREAQAVAQEWKCAFMETSAKMNYNVKELFQELLTLETRRNMSLNIDGKRSGKQKRTDRVKGKCTLM
